Values from PubChem BioAssay AID1224830 (NIAID, 2016)

Purpose: 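Host factors that control LPS-induced TNF expression in human macrophages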 (primary screen)
System: human THP-1 monocytic leukaemia cells, TNF dual-luciferase reporter clone, PMA-differentiated to macrophage-like cells
Reagent: siRNA pool against human genes, 50 nM
Duration: LPS for 4 h, given about 3 days after siRNA transfection
Challenge: bacterial LPS (TLR4 ligand), 10 ng/ml
Measured: 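Ratio of firefly to renilla light, scaled to the plate median and expressed as a robust z-score per replicate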
Reading the numbers: TNF reporter robust z-score: higher = stronger TNF reporter response to LPS
Active means: 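a well is active when its z-score exceeds 2.8 or falls below -1.5; control wells carry no call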
The deposit covers about 18,000 reagents; this is an unselected part. Over the whole deposit, about 2,900 (16%) were called active. 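Calls are made per well; low scores hint the gene aids the LPS response, high scores that it dampens it.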 Unmarked entries are inactive. Repeated entries: four replicate wells of each siRNA pool. No sequences are given here.

target gene	TNF reporter robust z-score
NT5DC1	0.59
NT5DC1	-0.87
NT5DC1	0.31
NT5DC1	1.28
CYB561D2	0.13
CYB561D2	1.58
CYB561D2	0.67
CYB561D2	1.41
NT5DC3	0.11
NT5DC3	-0.25
NT5DC3	-0.26
NT5DC3	0.65
COL6A2	0.01
COL6A2	0.77
COL6A2	0.82
COL6A2	1.36
DUOXA1	-0.3
DUOXA1	-0.72
DUOXA1	-0.2
DUOXA1	-0.57
TSR2	0.87
TSR2	1.4
TSR2	2.48
TSR2	2.12
PSMA8	1.2
PSMA8	0.71
PSMA8	-0.91
PSMA8	0.33
PIM1	0.18
PIM1	0.09
PIM1	0.59
PIM1	0.87
TGM7	0.25
TGM7	1.26
TGM7	0.44
TGM7	0.91
INTS14	-0.35
INTS14	0.71
INTS14	-0.83
INTS14	-0.08
CD3D	0.07
CD3D	0.34
CD3D	-0.65
CD3D	-0.16
DUS2	-0.26
DUS2	0.08
DUS2	-0.4
DUS2	2.36
TSPYL5	0.01
TSPYL5	1.89
TSPYL5	-0.42
TSPYL5	-0.54
GLMN	-0.04
GLMN	0.94
GLMN	0.75
GLMN	0.58
PPA2	0.26
PPA2	-0.75
PPA2	0.08
PPA2	1.8
DEFB124	-0.3
DEFB124	-0.37
DEFB124	0.6
DEFB124	0.43
FAT4	-0.4
FAT4	0.37
FAT4	0.85
FAT4	-1.06
GRIN2C	0.09
GRIN2C	0.26
GRIN2C	-0.08
GRIN2C	-0.17
APOM	-0.72
APOM	-0.47
APOM	-1.26
APOM	-0.75

Ordered by “TNF reporter robust z-score” (highest first): 13 of the entries above
target gene	TNF reporter robust z-score
FAT4	0.85
DEFB124	0.6
DEFB124	0.43
FAT4	0.37
GRIN2C	0.26
GRIN2C	0.09
GRIN2C	-0.08
GRIN2C	-0.17
DEFB124	-0.3
DEFB124	-0.37
FAT4	-0.4
APOM	-0.72
FAT4	-1.06
